# Literature values in paper PMC4937655 (Journal of Drug Assessment, 2013).
# Conditions: healthy volunteers; cited from earlier work
smiles,measurement,value
CC(C)c1c(C(=O)Nc2ccccc2)c(-c2ccccc2)c(-c2ccc(F)cc2)n1CC[C@@H](O)C[C@@H](O)CC(=O)O [atorvastatin],Increase in AUC with ticagrelor,36%
same,Increase in mean Cmax with ticagrelor,23%
